In PubChem BioAssay AID1347423 (Functional Genomics Laboratory (NCATS/FGL), 2020):
The whole screen tested about 52,000 sequences, of which about 210 (0.4%) were called active.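 Rule for the calls: active = gene whose silencing raises cell survival under the drug, median off-target-corrected z-score across its silencing RNAs 2 or more; inactive = the rest.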 The list shows a part of the results.

assay: Resistance to Poly (ADP-Ribose) Polymerase inhibitor: Gene Identification via Genome-wide siRNA Screen; details: mouse BRCA2 R2336H ES cells, olaparib, CellTiter-Glo viability; stronger effect = higher value
Method in brief: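 Mouse BRCA2 R2336H ES cells were reverse-transfected with siRNA (20 nM final), treated at 48 h with 500 nM olaparib, and read by CellTiter-Glo after 72 h. Scores: MAD-based z per siRNA, median per gene, seed off-target correction.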

Sequence	z-score
CGCAUACAUCAGGUCACUATT against Katnb1	inactive: 0.57
GGAUAAAAAGGAUAAGAGCTT against 1700011K15Rik	inactive: -0.315
GGUAAAAUAUAGUUUGCGCTT against Abca14	inactive: 0.305
GGAAGACCAGCAGUUAAGATT against Grb10	inactive: 0.15
GGACUGAAUCUUUAAAGGUTT against Nkx1-2	inactive: 1.09
GGAGGACAACAAGUACUGCTT against Smap1	inactive: 2.56
GGUACUGAUUGCUUUCUCUTT against Olfr1491	inactive: -0.0899
GGACAAACGGGAAAAGAAGTT against Sprr2d	inactive: -1.23
GGACAACAUCUUCAAAGGATT against Slc12a1	inactive: 0.366
GCUGGGUGAACUUACAGGATT against Wars2	inactive: 0.356
CCAGUGUAAUCGAGUGUGATT against Atp10a	inactive: -1.48
GCCCAUGUUUUUUUUUCUGTT against Olfr648	inactive: 0.0866
GGACUCAAAUGUGAUGCAUTT against Prkcq	inactive: -0.934
GGAGAUUCUUCUCAUUGGCTT against Gmppa	inactive: -1.07
GCCUCAGGAAGCAGAAUGATT against Kb40	inactive: 0.00438
GGAAGAACACAAGUGUUUUTT against Trem3	inactive: 0.216
CCCAAGAAACUUCGCUUCCTT against Ehmt1	inactive: -0.347
CCAGAAUGAUUAAUAACGGTT against AU022521	inactive: 1.08
GGCCUAAAGGCACAAUCUGTT against Nanos1	inactive: 0.678
GGAAAAAAAUUCUGAGUUCTT against Rab6	inactive: 0.677
CGAUGGACUUUUCGUUAACTT against Jun	inactive: -0.308
GGAGCUCAAGAGCUGGGUUTT against Tor2a	inactive: -1.84
GGACGUGAACAAAAGAAGGTT against Scel	inactive: -0.354
GGUGGUGAUAAGCUUCCUCTT against Olfr1417	inactive: -0.365
GGCCUUUGAACACACUCCATT against G6pc2	inactive: 0.0119
CCUUCAUGCAACAGCUACUTT against LOC380969	inactive: -2.08

Sequence	z-score
GCUCUAGGCAGAGCUAAGATT against Gsh1	inactive: 1.76
CCUGUGUUUCAGUUUGGUATT against C130052I12Rik	inactive: 0.515
GGCCAUCAUUUUCACAACUTT against C330018K18Rik	inactive: 0.952
GGUUUGAAUCAAAUUGUACTT against Hyou1	inactive: 0.498
GGAUGCUACAACACUCUACTT against Flrt3	inactive: 0.228
GCAAAGGUCAGGACUAUUUTT against Gpr103	inactive: -0.779
GCUUAUUUCAAAAAGGGAGTT against Mal2	inactive: 0.902
GCAUAGUCCUGUGCUUACCTT against Sfmbt2	inactive: -0.472
GCAAUUCAGGUUUACUACATT against Fgg	inactive: -0.286
GGAGUAUGGUAUCAACCCGTT against 1700012G19Rik	inactive: 1.16
GCGGGACUGGAUAAUAAACTT against Orc2l	inactive: -0.795
GGAGUUUCACUACAGCCGGTT against Cdx1	inactive: -0.109
CCUGUUAGGAAAGAAUCUUTT against 3110050K21Rik	inactive: 1.67
GGCCUUCAAAGCAAUAGGATT against 2700075B01Rik	inactive: -0.359
GGUGAUCAACAGGAGUCUGTT against Rgs17	inactive: -0.519
GGAAAAGGAGGUGGUACUGTT against Agc1	inactive: 0.55
CCCAGGGAGAAUUGACUUGTT against Sertad1	inactive: -0.465
GCCGUAGAUUUCCUUGAGUTT against Hbld2	inactive: -0.505
CGAUGAGACCAACAUCUUUTT against Grca	inactive: 0.445
GCGGGCUCACCAUAAUGCATT against Max	inactive: -1.03
GGAAAAAUCCAGCACAUCCTT against Vps29	inactive: -0.524
GGCAACUAUGAAAAAUAGUTT against 1700065D16Rik	inactive: 0.319
GGGCUCUGGUGGAUGAAUUTT against Tmem4	inactive: 0.117
GGAGACUCCAACUACUUCATT against Sycp1	inactive: 0.526
GGCUUUUCGUUGUAAAUCATT against 9930111J21Rik	inactive: 1.39
GGAGAGCAAGGAAGUACUATT against Speer4b	inactive: 0.239

5 entries from above, in CSV form:
Sequence,z-score
GCGGGCUCACCAUAAUGCATT against Max,inactive: -1.03
GGAAAAAUCCAGCACAUCCTT against Vps29,inactive: -0.524
GGCAACUAUGAAAAAUAGUTT against 1700065D16Rik,inactive: 0.319
GGGCUCUGGUGGAUGAAUUTT against Tmem4,inactive: 0.117
GGAGACUCCAACUACUUCATT against Sycp1,inactive: 0.526

(further entries)

Sequence	z-score
GGCAACUUUUAUCAAAAUGTT against 4930509O22	inactive: 0.0855
GCCCUACCUUACCUGAUACTT against Rab17	inactive: -0.955
GCAAAGUCCAGUGAACAACTT against Gtse1	inactive: -0.239
GGGACCUACUUUGUGGCUCTT against C230095G01Rik	inactive: 0.02
GCUGUUGCUGGCUAUUCUGTT against 5730409G15Rik	inactive: 0.298
CCUGCUUUGUAUCUCCUCCTT against Csprs	inactive: -0.521
GGUCAGACAGCAAUUCACATT against D830046C22Rik	inactive: 0.445
GGGUGAAUAAAACUUUGAATT against Haghl	inactive: -0.557
CCAAUUGAGAAAAGUACAGTT against Lrp4	inactive: 0.032
GGUGCAGCAUACCUGAAGATT against 9130213B05Rik	inactive: 0.871
GGUAUGAGAUACCGGACACTT against Accn2	inactive: 0.151
CCUACUUCUCAUCGCUGAGTT against 2310022B05Rik	inactive: 0.963
CUGUAUGAAGAACUGGAGCTT against BC026645	inactive: 0.798
GGUGGCCAUCAAAGUAAUCTT against Pim2	inactive: -0.0904
GCAAAUGGAUGGUUCUUGGTT against 1200009O22Rik	inactive: -0.0293
CCGAGCUGAGAUAUCCCAATT against Ube1y1	inactive: 1.17
GGGUUUGACUGUACAGUACTT against Adamts4	inactive: 0.0369
GCUUCGUGGCUUUUUAUGATT against Dlgap3	inactive: 0.631
GGGUAAAGUACAAUAAACUTT against Atp1b2	inactive: 1.14
GCACAUUGCUCCCAAGAAUTT against AI317223	inactive: -1.2
GGUGUGCUGAGAAGUACUGTT against Acate2	inactive: 0.734
GGAGUCUAAUAAAACAAGATT against Ankrd16	inactive: 0.744
GCGAUUGAGAAAGAAUGCGTT against Mrpl45	inactive: -0.245
CGACAAUACUCUCUUCAAGTT against Fst	inactive: 1.2
CCACUGGUUCACCUAUAAUTT against Psma5	inactive: -3.11
CAAAAAUAUCUACAGAGUCTT against Olfr494	inactive: -0.183

Sequence	z-score
GGACCCUUAGGAAAUGUGCTT against S100a10	inactive: -0.869
GCCUUCGACAUAGAGUACCTT against Cri2	inactive: 0.0276
GGUUUAUUUAGCCUUGCUUTT against Dhx33	inactive: -0.265
GCGAACUACACUUACUACATT against Aqp12	inactive: -0.513
CGAUAAUUUGGCUAAGUAUTT against Pip5k3	inactive: 0.0345
GGAAAUAAUUCACUCACCATT against Eya1	inactive: -2.13
GGUAUUUGAUUCCAAAUGCTT against 4930451A13Rik	inactive: -0.442
GGAGCCAUGACUUUUCACUTT against Sec22l1	inactive: 0.164
GGCAGAGUCUCUUUCGAAGTT against Foxh1	inactive: 1.25
GGCGACGAAGUCACCUAUATT against Carhsp1	inactive: -1.18
CCACCCAUGAACUCACCAUTT against Pcbp1	inactive: -2.26
GGCAACACACUGUCAUUUCTT against Il9	inactive: 0.751
GGUCACCAUCAUCAUCAAUTT against Lrrc16	inactive: 1.15
CCUGACAACUAACGAAGAUTT against Zdhhc18	inactive: -0.316
GCAAUUACAGAUUAAGUCUTT against 1200003I07Rik	inactive: 0.318
GGUAAGUAUACAAAGAUACTT against Cdc27	inactive: 1.86
GGCAGAACACCUUCUUAGUTT against 5830468K18Rik	inactive: 1.04
GGCCACAAUUAAUUUUUUGTT against Luzp2	inactive: 0.217
GGCUGUUCCAGAGAUUGUGTT against Mela	inactive: -2.87
GGAAGCACUAUAGCCUCAGTT against Olfr39	inactive: 1.36
GGAAAAGAAACCAGUUUCUTT against C230012O17Rik	inactive: 0.88
CCUACGAGUAUUCAGAAAGTT against Snx13	inactive: 0.352
CCUCUUUUUACUUGCCUAATT against Rassf1	inactive: -2.52
GCAACAAUGUGGUUCCUAUTT against Rab11a	inactive: -0.547
GGUUGGACAACAUAAUAAGTT against Mina	inactive: 0.92
GGAUUUUGAAUUAUGGGAUTT against 2310035C23Rik	inactive: 0.0298

Part of the list above, reformatted:
Sequence | z-score
GGCGACGAAGUCACCUAUATT against Carhsp1 | inactive: -1.18
CCACCCAUGAACUCACCAUTT against Pcbp1 | inactive: -2.26
